In patent US9321728B2, “Beta-alanine derivatives, pharmaceutically acceptable salts thereof, and pharmaceutical composition comprising same as active ingredient” (KOREA RESEARCH INSTITUTE OF CHEMICAL TECHNOLOGY, priority 2012, dated 2016):
At least one compound was matched to its structure with a doubt left.

By UniProt entry, the sequences of proteins in these tests, tags left out. Where a name states a change or a piece, a line headed by the entry shows the natural chain unless it says otherwise.
UniProt O75907: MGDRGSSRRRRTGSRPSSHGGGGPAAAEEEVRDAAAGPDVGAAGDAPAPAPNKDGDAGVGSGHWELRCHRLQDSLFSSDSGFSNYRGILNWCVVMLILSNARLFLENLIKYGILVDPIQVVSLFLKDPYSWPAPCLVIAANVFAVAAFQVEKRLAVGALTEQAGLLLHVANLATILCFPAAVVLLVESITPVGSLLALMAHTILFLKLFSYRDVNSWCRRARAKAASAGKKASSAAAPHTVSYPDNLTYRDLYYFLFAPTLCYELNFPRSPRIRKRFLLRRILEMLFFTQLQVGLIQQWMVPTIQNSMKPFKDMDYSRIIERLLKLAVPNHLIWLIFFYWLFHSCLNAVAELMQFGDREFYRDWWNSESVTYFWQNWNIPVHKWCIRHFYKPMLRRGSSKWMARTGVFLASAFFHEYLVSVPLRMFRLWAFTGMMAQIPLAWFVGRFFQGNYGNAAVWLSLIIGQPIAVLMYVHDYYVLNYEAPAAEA

Molecular target: human DGAT1 (Homo sapiens (Human), UniProt O75907)
Assay: Human DGAT1 enzyme inhibition test (phospholipid FlashPlate, [14C]decanoyl-CoA)
Format: biochemical
Conditions: verbal summary of Table 1
Procedure: The cells were treated with 200 μg/ml G-418(Sigma) once every three days for 4 weeks to over-express the human DGAT1, thereby obtaining a stabilized cell line. The over-expressed cells were put into a homogenization buffer [250 mM sucrose, 10 mM Tris-HCl (pH 7.4), 1 mM EDTA] and lysed by a homogenization apparatus. Then, centrifugation was performed with 600×g for 15 minutes to remove cell residue, and the obtained cells were used for an enzyme inhibition test. Human DGAT-1 and mouse DGAT activity was determined as follows: Assay buffer [20 mM HEPES (pH 7.4), 100 mM MgCl2, 0.04% BSA] containing 500 μM of enzyme substrate (didecanoyl glycerol) and 7.5 μM radiolabeled acyl-CoA substrate ([^14C]decanoyl-CoA) was added to each well of a phospholipid FlashPlate (PerkinElmer Life Sciences). A small aliquot of lysate (5 μg/well) or mouse liver microsome (0.1 mg/well) was added to start the reaction, which was allowed to proceed in a 20° C. bath for 1 hour. and maintained overnight at room temperature. Next day, measurement was performed by Wallac 1450 Microbeta Trilux Liquid Scintillation Counter and Luminometer (PerkinElmer Life Science). […] A calculation method of inhibition degree (%) is as follows.

| SMILES | in vitro inhibition activity with respect to DGAT1 |
| --- | --- |
| O=C([O-])C[C@H]1CC[C@H](c2ccc(NC(=O)CCNC(=O)c3nc(-c4c(Cl)cccc4Cl)oc3C(F)(F)F)cc2)CC1.[Na+] [Compound 69, sodium; trans-{4-[4-(3-{[2-(2,6-dichlorophenyl)-5-trifluoromethyloxazole-4-carbonyl]amino}propionylamino)phenyl]cyclohexyl}acetate] | good to excellent |
| O=C([O-])C[C@H]1CC[C@H](c2ccc(NC(=O)CCNC(=O)c3nc(-c4ccccc4Cl)oc3C(F)(F)F)cc2)CC1.[Na+] [Compound 79, sodium; trans-{4-[4-(3-{[2-(2-chlorophenyl)-5-trifluoromethyloxazole-4-carbonyl]amino}propionylamino)phenyl]cyclohexyl}acetate] | good to excellent |
